Reference: paper PMC11633369
Results are given in words; binding and its absence hold for the method and conditions named. Binding calls can cover weak binding; strength is not graded here.

By UniProt entry, the sequences of proteins in these tests, tags left out. Where a name states a change or a piece, a line headed by the entry shows the natural chain unless it says otherwise.
UniProt A0A3Q7IBT0: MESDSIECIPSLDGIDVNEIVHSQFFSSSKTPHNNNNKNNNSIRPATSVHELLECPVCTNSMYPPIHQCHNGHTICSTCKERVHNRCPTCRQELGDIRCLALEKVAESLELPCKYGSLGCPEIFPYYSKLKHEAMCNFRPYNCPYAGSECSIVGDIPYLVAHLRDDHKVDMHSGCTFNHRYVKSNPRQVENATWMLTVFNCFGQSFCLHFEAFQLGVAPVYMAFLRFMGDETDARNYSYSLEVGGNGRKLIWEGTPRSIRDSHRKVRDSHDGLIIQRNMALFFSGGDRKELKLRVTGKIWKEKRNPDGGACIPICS
UniProt A0A3Q7HES6: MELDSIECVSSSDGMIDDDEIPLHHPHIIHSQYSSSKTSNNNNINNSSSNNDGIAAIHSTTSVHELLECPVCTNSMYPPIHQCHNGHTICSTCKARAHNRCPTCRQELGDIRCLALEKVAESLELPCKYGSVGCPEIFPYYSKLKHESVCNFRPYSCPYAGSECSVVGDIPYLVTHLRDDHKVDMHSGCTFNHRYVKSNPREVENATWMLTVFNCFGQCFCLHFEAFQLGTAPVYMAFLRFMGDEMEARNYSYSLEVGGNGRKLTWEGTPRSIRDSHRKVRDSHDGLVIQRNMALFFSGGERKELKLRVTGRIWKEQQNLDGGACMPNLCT
UniProt A0A3Q7F640: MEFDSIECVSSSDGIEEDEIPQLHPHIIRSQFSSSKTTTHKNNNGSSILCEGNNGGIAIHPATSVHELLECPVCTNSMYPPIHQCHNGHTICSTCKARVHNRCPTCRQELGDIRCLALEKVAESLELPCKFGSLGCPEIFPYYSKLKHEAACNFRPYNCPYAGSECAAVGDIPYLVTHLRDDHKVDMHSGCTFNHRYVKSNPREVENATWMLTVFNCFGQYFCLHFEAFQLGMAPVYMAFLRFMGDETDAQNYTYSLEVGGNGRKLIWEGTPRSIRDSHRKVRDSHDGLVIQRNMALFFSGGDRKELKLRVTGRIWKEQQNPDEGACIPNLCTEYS
UniProt A0A3Q7E8S5: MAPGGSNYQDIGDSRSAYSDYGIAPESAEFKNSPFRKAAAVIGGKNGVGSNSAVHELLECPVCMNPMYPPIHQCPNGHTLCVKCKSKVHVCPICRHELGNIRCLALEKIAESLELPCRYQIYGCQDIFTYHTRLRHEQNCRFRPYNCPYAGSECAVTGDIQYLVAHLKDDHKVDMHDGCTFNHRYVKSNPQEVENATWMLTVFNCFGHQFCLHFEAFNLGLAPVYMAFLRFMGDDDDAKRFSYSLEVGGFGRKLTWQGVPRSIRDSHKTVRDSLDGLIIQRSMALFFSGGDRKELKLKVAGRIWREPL
UniProt A0A3Q7FN26: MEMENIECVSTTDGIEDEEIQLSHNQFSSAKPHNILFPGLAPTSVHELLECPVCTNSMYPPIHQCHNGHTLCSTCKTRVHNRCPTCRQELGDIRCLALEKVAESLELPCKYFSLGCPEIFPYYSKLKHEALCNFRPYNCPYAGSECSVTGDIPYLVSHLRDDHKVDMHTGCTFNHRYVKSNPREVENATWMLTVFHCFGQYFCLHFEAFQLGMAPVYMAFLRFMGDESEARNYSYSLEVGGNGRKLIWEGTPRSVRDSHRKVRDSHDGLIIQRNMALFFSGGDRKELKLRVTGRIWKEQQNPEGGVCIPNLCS

Molecular target: MBP‐BSD1‐HA (tomato (Solanum lycopersicum))
Test: pull-down; 20 µg MBP-BSD1-HA coupled to anti-HA Affinity Matrix, blocked with BSA; 20 µg precleared MBP-SINA1-6 or MBP-RHA1B added, 1 h at 4 °C; 20 mM HEPES-KOH pH 7.9, 15% glycerol, 0.2 mM EDTA, 0.2% NP-40, 1 mM DTT, 0.1 M NaCl; Western blot with anti-MBP; both purified

Row | Substance | binding
1 | MBP‐SINA6 (from UniProt A0A3Q7IBT0) (enzyme) | binds
2 | MBP‐SINA3 (from UniProt A0A3Q7HES6) (enzyme) | binds
3 | MBP‐SINA2 (from UniProt A0A3Q7F640) (enzyme) | binds

The next lines start with the values.

Row | binding | Substance
4 | binds | MBP‐SINA1 (from UniProt A0A3Q7E8S5) (enzyme)
5 | binds | MBP‐SINA5 (from UniProt A0A3Q7FN26) (enzyme)
